Where two headings read alike, the source gives them in different places. No constants are given. Whether binding was seen depends on the method and setting. In cells and extracts the contact can be indirect. Binding can be weak; no strength is given. For part of these data: Where a sequence is shown, tags or fusion partners need not be part of it.
How the values were obtained:
[1] = biological target: Synaptojanin 2 binding protein (SYNJ2BP), endogenous (mouse (endogenous in primary hippocampal neurons)) (UniProt Q9D6K5); assay: proximity ligation
[2] = biological target: T1, myc-tagged SYNJ2BP WT (shRNA-resistant), lentivirally overexpressed (rat) (UniProt Q9WVJ4); assay: co-IP
T1 sequence: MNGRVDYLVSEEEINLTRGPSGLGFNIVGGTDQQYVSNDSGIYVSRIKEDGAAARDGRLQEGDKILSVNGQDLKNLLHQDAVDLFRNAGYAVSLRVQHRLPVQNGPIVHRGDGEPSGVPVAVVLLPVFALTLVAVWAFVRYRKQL

The chains behind the UniProt entries cited, without tags or fusion partners.
UniProt Q9D6K5: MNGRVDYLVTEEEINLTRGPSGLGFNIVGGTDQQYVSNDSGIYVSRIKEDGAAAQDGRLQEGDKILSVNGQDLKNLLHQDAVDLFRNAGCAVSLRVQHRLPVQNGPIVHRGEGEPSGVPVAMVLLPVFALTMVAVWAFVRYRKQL

[3] = biological target: T1, myc-tagged SYNJ2BP WT (shRNA-resistant), lentivirally overexpressed (rat); assay: co-IP; remark: listed apart in the source

Measured: binding

Synaptojanin 2 (SYNJ2), endogenous (from UniProt Q9D2G5-6)
binds: all assays above

— doi:10.1101/2023.02.06.527276
